# This is one part of the list.
# Target: T1, OsSMF1 (Oryza sativa, UniProt Q6ZLB0 1-436)
# T1 sequence: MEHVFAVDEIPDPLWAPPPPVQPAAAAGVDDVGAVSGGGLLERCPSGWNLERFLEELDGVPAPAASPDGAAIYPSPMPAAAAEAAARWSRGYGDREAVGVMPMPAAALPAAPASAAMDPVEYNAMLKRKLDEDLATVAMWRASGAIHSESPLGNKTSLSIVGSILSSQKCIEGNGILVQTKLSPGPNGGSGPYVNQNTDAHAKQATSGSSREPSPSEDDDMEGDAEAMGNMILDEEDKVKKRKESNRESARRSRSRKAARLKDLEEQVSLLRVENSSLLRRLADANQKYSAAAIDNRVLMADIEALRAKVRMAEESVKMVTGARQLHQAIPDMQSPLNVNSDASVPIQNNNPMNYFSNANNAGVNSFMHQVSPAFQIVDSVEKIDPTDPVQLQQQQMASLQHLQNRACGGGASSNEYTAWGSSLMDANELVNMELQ
# Assay: protein-binding microarray (RPBM); PBS, 2% BSA, 51.3 ng/ul salmon testes DNA, 50 uM zinc acetate, 200 nM TF, 25 C, 1 h; high values mean tight binding
# Details: protein: recombinant; tags: N-terminal polyhistidine and DsRed monomer fusion (pET32a); chain copies: 2; label: CyDye5-dUTP incorporated in the synthesized complementary strand; 3' TTTTT single-stranded linker to array surface; dsDNA, one strand shown
# Method in brief: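 Ni–NTA purification followed expression in E. coli BL21-CodonPlus of transcription factors fused N-terminally to a polyhistidine tag and DsRed. At 200 nM in PBS with 2% BSA, salmon testes DNA and 50 µM zinc acetate, the protein was incubated for 1 h at 25 °C with a custom Agilent array that had been primer-extended with Cy5-dUTP and blocked with 2% BSA. After washing, the array was read on an Axon 4000B scanner. The binding signal is per-feature fluorescence intensity in arbitrary units.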
row,Sequence,binding signal
1,AAGCAGCATATTCTATATATTGCCACGTTCACCACATAGACGGAGTCACCTAGTGCAG,5970 fluorescence intensity (a.u.)
2,TATAACCATTACGTACTCCACGACAGCTCCTCTGCGACGCCGGAGTCACCTAGTGCAG,3860 fluorescence intensity (a.u.)
3,ATCGCGGATCAGGCGTAGAACGTGGCATGTTTCCAGTATCCGGAGTCACCTAGTGCAG,6200 fluorescence intensity (a.u.)
4,GTGATGCTGATGACACACTGGCACACGCGCACACACACAGCGGAGTCACCTAGTGCAG,6650 fluorescence intensity (a.u.)
5,ACTCTGTACTGCGCCGTCACTCGTAGACTACTCCATCCCGCGGAGTCACCTAGTGCAG,4340 fluorescence intensity (a.u.)
6,TTGCACGCGGATCTCCACACTCCGCACCGCCGGAACCCTACGGAGTCACCTAGTGCAG,3260 fluorescence intensity (a.u.)
7,CTCCTCTTCGTTATCCCGTCGCCACCTCGCCCCATCACCCCGGAGTCACCTAGTGCAG,5340 fluorescence intensity (a.u.)
8,GCGCGAAGGCGAAGCGGCCGTGGACGCATGCGAGCCTTGACGGAGTCACCTAGTGCAG,3540 fluorescence intensity (a.u.)
9,CGCTTCCTGTTGTGATTATGTAATCTTGTATTCTTGTTGACGGAGTCACCTAGTGCAG,3540 fluorescence intensity (a.u.)
10,CGCGGCCACGCGCGGTCGGCGAGGCCACCGTGTACGCCGGCGGAGTCACCTAGTGCAG,3280 fluorescence intensity (a.u.)
11,GTGCAAAGCTCCCAGTCTCATTGTTGCGGCAACGTGGCTTCGGAGTCACCTAGTGCAG,3700 fluorescence intensity (a.u.)
12,GGTTTTATCTGACGTGGCTGCTGAGTCAGTGTGGGACCCACGGAGTCACCTAGTGCAG,30900 fluorescence intensity (a.u.)
13,GCGCCGCCGGCGCCGCGGCGCGGCCGATGACCACGCCGGACGGAGTCACCTAGTGCAG,3490 fluorescence intensity (a.u.)
14,TACGCGCGTCGTTGACACGCCAGCTGATGCATTACATGTTCGGAGTCACCTAGTGCAG,5620 fluorescence intensity (a.u.)
15,ACATAGTAATTTTGCATGGCCATCATCTTGCCCTCCTATACGGAGTCACCTAGTGCAG,3160 fluorescence intensity (a.u.)
16,CGCCGACGACGACGAGGTCTACCCTCCGCTGACCACGATGCGGAGTCACCTAGTGCAG,3660 fluorescence intensity (a.u.)
17,TGGTTGGTGGTGTCTGTGCGTGTTCCGGCGAGTGGTCGGTCGGAGTCACCTAGTGCAG,4210 fluorescence intensity (a.u.)
18,CACTCTGCTTTGCCTCGAATATCTCGGCAGGTAGACGTCACGGAGTCACCTAGTGCAG,4190 fluorescence intensity (a.u.)
19,TCACGGCCGCCTCCGCCATCTGCACAACCTCGCCGCCGCCCGGAGTCACCTAGTGCAG,65500 fluorescence intensity (a.u.)
20,TGCACGGCCAGCACCGACGTCGGCAGCTTGCCCATGTCGACGGAGTCACCTAGTGCAG,3820 fluorescence intensity (a.u.)
21,GCTATAATATATTGCAGCAGCAGCAGCAGTGGTGGTGGTGCGGAGTCACCTAGTGCAG,3360 fluorescence intensity (a.u.)
22,TTTCAACGGAAATCTACCGCGTCCAGGTGGCGGACGCCCACGGAGTCACCTAGTGCAG,3540 fluorescence intensity (a.u.)
23,TATGTGGGGTTGAATTTGTTTTGAAATTTCCGCATAGATGCGGAGTCACCTAGTGCAG,3510 fluorescence intensity (a.u.)
24,GGCACAGGGCGGCGACGAGGATGTTGAACGTGTGCGCGTTCGGAGTCACCTAGTGCAG,3870 fluorescence intensity (a.u.)
25,CCAATTGTGTGGCGCGGACGTGGCGCGCCGCGCGTCCACCCGGAGTCACCTAGTGCAG,7350 fluorescence intensity (a.u.)
26,TGGCCGGCCCCGCCGGCAGCCGAACCTCTCGTGACCCGTGCGGAGTCACCTAGTGCAG,3220 fluorescence intensity (a.u.)
27,GGGTGGATTTGAGTGACACGGGCCCACGTGTAGCCTCACACGGAGTCACCTAGTGCAG,11700 fluorescence intensity (a.u.)

# Looked up above:
# Under binding signal, AAGCAGCATATTCTATATATTGCCACGTTCACCACATAGACGGAGTCACCTAGTGCAG is listed with 5970 fluorescence intensity (a.u.)
# Under binding signal, ACATAGTAATTTTGCATGGCCATCATCTTGCCCTCCTATACGGAGTCACCTAGTGCAG is listed with 3160 fluorescence intensity (a.u.)

# Going on with the list:

row,Sequence,binding signal
1,CCAGTGTGTGAATCAGTGTGACGTGACACATGACGTAAGCCGGAGTCACCTAGTGCAG,7060 fluorescence intensity (a.u.)
2,TATTTTGAACGTGACTAAATGTCCATTTTCTCGCACCCCACGGAGTCACCTAGTGCAG,4220 fluorescence intensity (a.u.)
3,GTGGATAGCTGAAGGTTTTGTCCATGTGGAACATGTAGGGCGGAGTCACCTAGTGCAG,3270 fluorescence intensity (a.u.)
4,AAGCATCACATCAACGTCACGTGGAACGAAGACTAGGTCACGGAGTCACCTAGTGCAG,6370 fluorescence intensity (a.u.)
5,CAGTAGAGGCAAAAGCTGGTCGTCGTGGCGGGTTCATCGGCGGAGTCACCTAGTGCAG,4350 fluorescence intensity (a.u.)
6,ACAGTTACCGGCCAGTTCGCTATTGCCGGAGTCACCATCCCGGAGTCACCTAGTGCAG,3280 fluorescence intensity (a.u.)
7,GCTTCACCTCTGACACCATTGACACATTAGCCTGCCATTGCGGAGTCACCTAGTGCAG,5500 fluorescence intensity (a.u.)
8,AAAAGAAACCTGCCTATACGTCACAAAATTCAAACGATGCCGGAGTCACCTAGTGCAG,4150 fluorescence intensity (a.u.)
9,ACTATGTTTATCATGTTTGTCGTGGCATGTGTGCCCTTGTCGGAGTCACCTAGTGCAG,4520 fluorescence intensity (a.u.)
10,GAGACCCAAAGCCACGCAACTTTCTTTGTGTTCTTTGATTCGGAGTCACCTAGTGCAG,3990 fluorescence intensity (a.u.)
11,CCCGTGTTCTCCACCTCACTCCACAATAACTTGGCGGCTGCGGAGTCACCTAGTGCAG,5380 fluorescence intensity (a.u.)
12,CAAGAGGAGGGTCTACGCCTTCTTTACGCGAACGTGGACCCGGAGTCACCTAGTGCAG,4010 fluorescence intensity (a.u.)
13,GCATTGAACTATGCAGGCAGATATTTTCCAGCTCACGGCACGGAGTCACCTAGTGCAG,7100 fluorescence intensity (a.u.)
14,AAAATAGAAAATGCTGACTAGGTTGCCACGCGTACGTCACCGGAGTCACCTAGTGCAG,15500 fluorescence intensity (a.u.)
15,ATGTTCAAACCACTCAGCTGACTTGGTATGATCCCGGCAACGGAGTCACCTAGTGCAG,8020 fluorescence intensity (a.u.)
16,TGCCATAGCTGATTACAGATTTACAGCCGGCTTTCATTCTCGGAGTCACCTAGTGCAG,4130 fluorescence intensity (a.u.)
17,TTTATCCATATCTAAATCTACGCATTAATGAGTCATCCTACGGAGTCACCTAGTGCAG,8520 fluorescence intensity (a.u.)
18,CCCACACTACGGTCAACATTGTACAATAATAGACGCCCAGCGGAGTCACCTAGTGCAG,3290 fluorescence intensity (a.u.)
19,TCATGGTCATGACTCATGACTCATGTGGTCATCCAAAAGACGGAGTCACCTAGTGCAG,9770 fluorescence intensity (a.u.)
20,AATTGATTTCTCTATAGACAAATAGGGAATGCCAGATTGACGGAGTCACCTAGTGCAG,20100 fluorescence intensity (a.u.)
21,AGAGCTCACAACTTACCCCGTCCGTGCGTACGTAGCAGCACGGAGTCACCTAGTGCAG,3690 fluorescence intensity (a.u.)
22,ATGACATATAAGTCCACTGTAATTTTGGTATAAGTAAATACGGAGTCACCTAGTGCAG,3180 fluorescence intensity (a.u.)
23,CATCTACGAAAATAGGCCTATGCAGGCGGCTGACTACCCGCGGAGTCACCTAGTGCAG,3850 fluorescence intensity (a.u.)
24,CAAGATAATCTTGCATTTGTGGCTTTGACACGACGACGATCGGAGTCACCTAGTGCAG,3830 fluorescence intensity (a.u.)
25,AGGTCATGTCATCTCTGGCAGGCCTAAACCCTTTCCTCTACGGAGTCACCTAGTGCAG,9830 fluorescence intensity (a.u.)
26,CAGCGAGAGCGGTGTGGCCAAATAACGCTGCCACGTCAGTCGGAGTCACCTAGTGCAG,35900 fluorescence intensity (a.u.)
27,GCGGCGGTGTCTCGCGCCGCCAGCCTACAAATGGGGAGAGCGGAGTCACCTAGTGCAG,40300 fluorescence intensity (a.u.)
